# Data taken from US8722850B2, “Self-assembling peptides and their use in the formation of hydrogels” (Universita' Degli Studi di Milano Bicocca, priority 2010, dated 2014).
# “Also recorded” adds a separate entry of the source. Not every detail of the peptide structures is certain; ends, links or a residue may be inferred. Where a SMILES comes first, the peptide text is derived from it. The star is where a group is joined. Biotin = O=C1N[C@H]2[C@H](CS[C@H]2CCCCC(=O)*)N1
# Key:
# [1] = Macro-scale scaffold formation upon exposure to PBS / neutral pH buffer; type: physicochemical; conditions: upon exposure to PBS (1×) / neutral pH buffer
# Excerpt: The tested peptides solutions appearance ranged from peptides giving clear liquid is solutions (e.g. 4, B15, B19, B25, B28, 30) to samples which become opaque in 1 to 7 days after dissolution (e.g. B3, B17, B22, B24, B27, 31) as shown in FIG. 2a (I). Most of the liquid solutions increased in viscosity over the first week after dissolution, however after ten days in water no appreciable changes happened at the macroscale.
# Nonetheless, keeping constant the observation time, the storage moduli of peptide solutions previously dissolved (the day before) at 3% w/v were measured. Measurements were obtained of these peptide solutions, further diluted to 1% w/v at the same day of the experiment (unless otherwise specified), and, after addition of PBS, of the formed scaffolds.
# [2] = tested on: human Neural Stem Cells (hNSCs); assay: Phase contrast imaging of hNSC morphology on scaffolds; type: cell-based; conditions: 7 days in vitro
# Procedure: (§1) In vitro tests were performed following a previously adopted methodology (5). Briefly, cells (at a concentration of 6×10^4 cells/cm^2) were seeded on the top-surface of each assembled scaffold previously assembled into 96 multiwells. Initially, cells were cultured with basal medium supplemented with βFGF (10 ng/ml), added to enhance neuronal progeny differentiation. At 3 days in vitro (DIV), βFGF medium was replaced with Leukemia Inhibitory Factor (LIF, Chemicon) (20 ng/ml) and Brain Derived Neurotrophic Factor (BDNF, Peprotech) (20 ng/ml). Fresh medium was added every three days. Positive and negative controls consisted of CULTREX-BME® substrate (R&D systems) (1:100 dilution in basal medium) and untreated bottom well surfaces respectively.
# To assess the potential of the proposed SAPs for cell cultures and, more generally, for regenerative medicine, a two-dimensional cell culture protocol already developed for RADA16-I-like peptides was adapted (5). Briefly, human Neural Stem Cells (hNSCs), mechanically dissociated 1 day before plating, were seeded and cultured for one week in vitro over self-assembled scaffolds of B3, 4, B15, B17, B19, B22, B24, B25, B27, B28, 30, 31 and over non-coated tissue culture plastic wells (negative control).
# [3] = Self-healing tests of assembled scaffolds after mechanical rupture; type: physicochemical; conditions: recovery of scaffold stiffness after mechanical rupture
# Procedure: (§2) Rheological properties were determined for the peptides of the invention, using a controlled stress TA Instruments AR-2000ex rheometer (TAInstruments). A cone-and-plate geometry (acrylic cone diameter, 20 mm; angle, 1°; truncation gap 34 μm) was used. All measurements were obtained at a constant monitored temperature of 25° C. Preliminary strain sweeps were performed for each sample to define the linear viscoelastic region, thus ensuring that moduli were independent of strain. Time sweeps, after addition of PBS (1×) were recorded at constant angular frequency (ω=1 Hz). […] Final: onset point of rupture was calculated by linear interpolation and subsequent determination of the intersection of the G′ modes in the linear region and at material rupture respectively. […] G′ values were is recorded in frequency sweep mode (at 1% strain) or, in time sweep mode (at 1 Hz and at 1% strain), before and after the strain sweep step, subsequent observations were performed every half hour or, in case of time sweep test, every 30 seconds. In all of the SAPs the difference between the storage moduli measured before and after PBS addition spanned from two to four orders of magnitude, proving the dramatic biomechanical changes taking place during scaffold gelation. […]
# [4] = Rheological tests (storage modulus G′, cone-and-plate rheometer); type: physicochemical; conditions: after PBS (1×) addition; averaged in 1-100 Hz range; 25° C.; B3 at 1%
# Procedure: as §2
# [5] = tested on: spinal cord of rats; assay: In vivo nervous regeneration test, spinal cord injections, 1 month; conditions: one month after injections
# Procedure: (§3) To test if the SAPs according to the present invention show any toxicity when used in vivo we assessed the tissue reaction to multiple injections of B24 into the spinal cord of rats. All procedures involving animals were performed according to EC guidelines (EC Council Directive 86/609, 1987), to the Italian legislation on animal is experimentation (Decreto L. vo 116/92) and to protocols approved by the Animal Care and Use Committee of the University of Milan-Bicocca (IACUC 37/07).
# (§4) Female Sprague-Dawley rats weighting 200-250 gr (Charles River Laboratories) were divided into two groups: 1) animals receiving injections of saline solution (control group, n=3) and 2) animals treated with B24 (n=3). In the case of long term observations (1 month) similar injections of B24 were used (n=2). Rats were anesthetized with an intraperitoneal injection of ketamine (80 mg/kg) and xylazine (10 mg/kg). The spinal cord was exposed at the T9-T10 level, and, after laminectomy, animals were injected with B24 (1% aqueous solution) or saline solution using a Hamilton syringe held via a micromanipulator. The solutions were delivered at distances of 500 μm, and two injections of 0.5 μl each were made at each interval, for a total dose of 3 μl. After injection, the muscles were sutured and the skin was closed with wound clips. […]
# [6] = tested on: human Neural Stem Cells (hNSCs); assay: hNSC differentiation, immunostaining at 14 DIV; type: cell-based
# [7] = tested on: spinal cord of rats; assay: In vivo toxicity / biocompatibility, injections into the spinal cord, 3 days; conditions: 1% aqueous solution, total 3 μl, versus saline
# Procedure: as §3, §4
# [8] = tested on: human Neural Stem Cells (hNSCs); assay: CellTiter 96 Aqueous Proliferation Assay of hNSCs on self-assembled scaffolds; type: cell-based; conditions: 7 DIV, n=6, versus negative control (plastic)
# Procedure: Neural precursor cultures are established and expanded as previously described (15, 16). Human neural stem cells (NSCs) were isolated from the central nervous system, in particular from the diencephalon and the cerebral cortex of human brain 10.5 weeks from conception. The modalities for obtaining the primary tissue are in agreement with the guidelines of the European Network for Transplantation (NECTAR).
# as §1, with “Positive and negative controls consisted of CULTREX-BME® substrate (R&D systems) (1:100 dilution in basal medium) and untreated bottom well surfaces respectively.” left out
# Cell viability was quantified via […] […] After calibrating the linear response between the cell number and absorbance values, proliferated cell populations were quantified (n=6) by using a Vmax microplate reader (Molecular Devices, Sunnyvale, Calif.) at 490 nm wavelength. […]
SMILES,solid scaffold / hydrogel formation [1],cell morphology / degree of spreading [2],self-healing property [3],storage modulus G′ of assembled scaffold (G′ post-assembling) [4],"infiltration of scaffold by regenerating nervous fibers (βIIITubulin, GAP-43) [5]",hNSC differentiation (in words) [6],GFAP positive cells ([6]; n=4),GalC/O4 positive cells ([6]; n=4),MAP2 positive cells ([6]; n=4),βIIITubulin positive cells ([6]; n=4),hematoma formation after micro-injections [7],living cell population / hNSC viability (CellTiter assay) [8]
C[C@@H](O)[C@H](NC(=O)[C@H](CCCNC(=N)N)NC(=O)[C@@H](NC(=O)[C@H](CO)NC(=O)[C@H](CO)NC(=O)[C@H](Cc1ccccc1)NC(=O)[C@@H]1CCCN1C(=O)CNC(=O)CNC(=O)CNC(=O)CCCC[C@@H]1SC[C@@H]2NC(=O)N[C@@H]21)[C@@H](C)O)C(N)=O [B22] (Biotin-GGGPFSSTRT-NH2),yielded solid scaffolds,proliferated cell clusters,self-healing property has been seen,,,,,,,,,
C[C@H](NC(=O)CNC(=O)CNC(=O)CNC(=O)CCCC[C@@H]1SC[C@@H]2NC(=O)N[C@@H]21)C(=O)N[C@@H](Cc1ccccc1)C(=O)N[C@@H](C)C(=O)N[C@@H](CO)C(=O)N[C@H](C(=O)N[C@@H](CCCCN)C(=O)N[C@H](C(N)=O)[C@@H](C)O)[C@@H](C)O [peptide B24] (Biotin-GGGAFASTKT-NH2),yielded solid scaffolds,adhered and differentiating hNSCs; also recorded: branched and adhered cells,self-healing property has been seen,6502 Pa,widely invaded by regenerating nervous fibers,comparable to standard hNSC differentiation data obtained with animal extracts; also recorded: supported hNSCs differentiation toward neurons,87.72%±0.49%,1.63%±0.37%,9.5%±0.1%,12.27%±0.49%,prevented the hematoma,"biggest living cell populations, significantly different from negative control"
